Results as given in publication PMC8807037.
These are yes or no findings as the source states them, for the method shown. In cells and extracts the contact can be indirect. Some results given as binding are weak or reduced against the parent protein; the word gives no strength. For some of these results: Tags and fused reporters may be left off the sequences shown. One block for each binder: values may come before it.

What was measured:
[1] = target: T1, FLAG-tagged B7-H3 (human) (UniProt Q5ZPR3); test: co-IP; 293T cells cotransfected with His-GOLM1 and Flag-B7-H3; lysis in RIPA (150 mM NaCl, 50 mM Tris pH 7.6); primary antibody or IgG overnight at 4°C, protein A/G Sepharose beads; western blotting; reciprocal co-IP
T1 sequence: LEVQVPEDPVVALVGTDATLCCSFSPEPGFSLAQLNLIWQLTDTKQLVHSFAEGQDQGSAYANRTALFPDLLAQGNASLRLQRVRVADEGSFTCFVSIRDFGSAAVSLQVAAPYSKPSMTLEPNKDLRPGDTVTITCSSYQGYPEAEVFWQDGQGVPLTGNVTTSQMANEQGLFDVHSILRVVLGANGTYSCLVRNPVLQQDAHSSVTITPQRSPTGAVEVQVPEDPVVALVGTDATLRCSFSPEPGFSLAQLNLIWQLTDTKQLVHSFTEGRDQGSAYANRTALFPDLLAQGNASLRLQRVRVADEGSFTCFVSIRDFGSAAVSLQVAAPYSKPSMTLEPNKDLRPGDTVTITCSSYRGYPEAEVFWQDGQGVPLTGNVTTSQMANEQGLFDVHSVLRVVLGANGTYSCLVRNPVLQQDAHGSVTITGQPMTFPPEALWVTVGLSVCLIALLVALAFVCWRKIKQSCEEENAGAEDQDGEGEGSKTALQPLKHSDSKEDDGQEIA

[2] = target: T2, B7-H3, endogenous in SKOV3 (human (endogenous in SKOV3)) (UniProt Q5ZPR3); test: co-IP; endogenous proteins in SKOV3 lysate; lysis in RIPA (150 mM NaCl, 50 mM Tris pH 7.6); IP with anti-GOLM1 or anti-B7-H3 antibody overnight at 4°C, protein A/G Sepharose beads; western blotting for the other protein
T2 sequence: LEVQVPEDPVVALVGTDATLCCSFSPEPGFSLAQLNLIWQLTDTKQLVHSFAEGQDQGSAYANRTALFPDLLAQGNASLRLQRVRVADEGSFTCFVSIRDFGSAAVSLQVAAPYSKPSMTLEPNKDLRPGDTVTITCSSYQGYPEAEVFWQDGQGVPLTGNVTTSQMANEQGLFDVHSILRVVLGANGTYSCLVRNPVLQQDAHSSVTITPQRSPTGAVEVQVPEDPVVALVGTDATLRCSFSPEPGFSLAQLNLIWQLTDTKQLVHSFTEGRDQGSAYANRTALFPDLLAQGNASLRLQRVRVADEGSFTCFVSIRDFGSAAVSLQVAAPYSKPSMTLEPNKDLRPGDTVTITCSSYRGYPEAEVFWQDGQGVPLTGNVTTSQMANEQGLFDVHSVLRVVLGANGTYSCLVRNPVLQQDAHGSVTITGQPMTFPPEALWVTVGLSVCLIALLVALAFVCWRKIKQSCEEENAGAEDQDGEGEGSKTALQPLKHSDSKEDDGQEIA

[3] = target: T3, His-tagged Golgi membrane protein 1 (GOLM1) (human (cloned from SKOV3)) (UniProt Q8NBJ4); test: co-IP; 293T cells cotransfected with His-GOLM1 and Flag-B7-H3; lysis in RIPA (150 mM NaCl, 50 mM Tris pH 7.6); primary antibody or IgG overnight at 4°C, protein A/G Sepharose beads; western blotting; reciprocal co-IP
T3 sequence: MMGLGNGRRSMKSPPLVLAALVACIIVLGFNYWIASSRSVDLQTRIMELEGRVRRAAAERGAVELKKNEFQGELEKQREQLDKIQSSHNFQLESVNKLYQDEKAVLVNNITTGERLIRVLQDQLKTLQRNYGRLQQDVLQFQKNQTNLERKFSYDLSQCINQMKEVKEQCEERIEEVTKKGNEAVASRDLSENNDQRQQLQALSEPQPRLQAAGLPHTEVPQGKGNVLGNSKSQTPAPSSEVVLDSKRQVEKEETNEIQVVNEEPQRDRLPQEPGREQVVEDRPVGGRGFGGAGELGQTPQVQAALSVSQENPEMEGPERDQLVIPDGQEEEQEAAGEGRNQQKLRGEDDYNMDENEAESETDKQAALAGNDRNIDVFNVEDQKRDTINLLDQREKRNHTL

[4] = target: T4, Golgi membrane protein 1 (GOLM1), endogenous in SKOV3 (human (endogenous in SKOV3)) (UniProt Q8NBJ4); test: co-IP; endogenous proteins in SKOV3 lysate; lysis in RIPA (150 mM NaCl, 50 mM Tris pH 7.6); IP with anti-GOLM1 or anti-B7-H3 antibody overnight at 4°C, protein A/G Sepharose beads; western blotting for the other protein
T4 sequence: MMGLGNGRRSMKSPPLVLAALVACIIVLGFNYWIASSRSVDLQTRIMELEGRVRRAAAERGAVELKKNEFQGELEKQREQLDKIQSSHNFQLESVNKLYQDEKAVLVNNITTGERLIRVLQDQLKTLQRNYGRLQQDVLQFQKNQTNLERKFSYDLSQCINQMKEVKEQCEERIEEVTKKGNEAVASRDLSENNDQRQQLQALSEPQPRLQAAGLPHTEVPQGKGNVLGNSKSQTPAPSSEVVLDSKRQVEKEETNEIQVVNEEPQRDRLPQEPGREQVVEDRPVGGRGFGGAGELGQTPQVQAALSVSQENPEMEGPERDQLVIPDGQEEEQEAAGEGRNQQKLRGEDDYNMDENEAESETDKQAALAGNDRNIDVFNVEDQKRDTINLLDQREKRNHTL

- binding [1]: binds
B1: His-tagged Golgi membrane protein 1 (GOLM1) (protein, UniProt Q8NBJ4 1-401)
chain: MMGLGNGRRSMKSPPLVLAALVACIIVLGFNYWIASSRSVDLQTRIMELEGRVRRAAAERGAVELKKNEFQGELEKQREQLDKIQSSHNFQLESVNKLYQDEKAVLVNNITTGERLIRVLQDQLKTLQRNYGRLQQDVLQFQKNQTNLERKFSYDLSQCINQMKEVKEQCEERIEEVTKKGNEAVASRDLSENNDQRQQLQALSEPQPRLQAAGLPHTEVPQGKGNVLGNSKSQTPAPSSEVVLDSKRQVEKEETNEIQVVNEEPQRDRLPQEPGREQVVEDRPVGGRGFGGAGELGQTPQVQAALSVSQENPEMEGPERDQLVIPDGQEEEQEAAGEGRNQQKLRGEDDYNMDENEAESETDKQAALAGNDRNIDVFNVEDQKRDTINLLDQREKRNHTL

- binding [3]: binds
B3: FLAG-tagged B7-H3 (protein, UniProt Q5ZPR3 29-534)
chain: LEVQVPEDPVVALVGTDATLCCSFSPEPGFSLAQLNLIWQLTDTKQLVHSFAEGQDQGSAYANRTALFPDLLAQGNASLRLQRVRVADEGSFTCFVSIRDFGSAAVSLQVAAPYSKPSMTLEPNKDLRPGDTVTITCSSYQGYPEAEVFWQDGQGVPLTGNVTTSQMANEQGLFDVHSILRVVLGANGTYSCLVRNPVLQQDAHSSVTITPQRSPTGAVEVQVPEDPVVALVGTDATLRCSFSPEPGFSLAQLNLIWQLTDTKQLVHSFTEGRDQGSAYANRTALFPDLLAQGNASLRLQRVRVADEGSFTCFVSIRDFGSAAVSLQVAAPYSKPSMTLEPNKDLRPGDTVTITCSSYRGYPEAEVFWQDGQGVPLTGNVTTSQMANEQGLFDVHSVLRVVLGANGTYSCLVRNPVLQQDAHGSVTITGQPMTFPPEALWVTVGLSVCLIALLVALAFVCWRKIKQSCEEENAGAEDQDGEGEGSKTALQPLKHSDSKEDDGQEIA

Further lines, the binder ahead of its results:

B2: Golgi membrane protein 1 (GOLM1), endogenous in SKOV3 (protein, UniProt Q8NBJ4 1-401)
chain: MMGLGNGRRSMKSPPLVLAALVACIIVLGFNYWIASSRSVDLQTRIMELEGRVRRAAAERGAVELKKNEFQGELEKQREQLDKIQSSHNFQLESVNKLYQDEKAVLVNNITTGERLIRVLQDQLKTLQRNYGRLQQDVLQFQKNQTNLERKFSYDLSQCINQMKEVKEQCEERIEEVTKKGNEAVASRDLSENNDQRQQLQALSEPQPRLQAAGLPHTEVPQGKGNVLGNSKSQTPAPSSEVVLDSKRQVEKEETNEIQVVNEEPQRDRLPQEPGREQVVEDRPVGGRGFGGAGELGQTPQVQAALSVSQENPEMEGPERDQLVIPDGQEEEQEAAGEGRNQQKLRGEDDYNMDENEAESETDKQAALAGNDRNIDVFNVEDQKRDTINLLDQREKRNHTL
- binding [2]: binds

B4: B7-H3, endogenous in SKOV3 (protein, UniProt Q5ZPR3 29-534)
chain: LEVQVPEDPVVALVGTDATLCCSFSPEPGFSLAQLNLIWQLTDTKQLVHSFAEGQDQGSAYANRTALFPDLLAQGNASLRLQRVRVADEGSFTCFVSIRDFGSAAVSLQVAAPYSKPSMTLEPNKDLRPGDTVTITCSSYQGYPEAEVFWQDGQGVPLTGNVTTSQMANEQGLFDVHSILRVVLGANGTYSCLVRNPVLQQDAHSSVTITPQRSPTGAVEVQVPEDPVVALVGTDATLRCSFSPEPGFSLAQLNLIWQLTDTKQLVHSFTEGRDQGSAYANRTALFPDLLAQGNASLRLQRVRVADEGSFTCFVSIRDFGSAAVSLQVAAPYSKPSMTLEPNKDLRPGDTVTITCSSYRGYPEAEVFWQDGQGVPLTGNVTTSQMANEQGLFDVHSVLRVVLGANGTYSCLVRNPVLQQDAHGSVTITGQPMTFPPEALWVTVGLSVCLIALLVALAFVCWRKIKQSCEEENAGAEDQDGEGEGSKTALQPLKHSDSKEDDGQEIA
- binding [4]: binds
